Source: US10414725B2, “Pyrrolomycins and methods of using the same” (priority 2015, dated 2019)

Test system: Bacillus anthracis

In the case of `O=C(O)c1cn(C2CC2)c2cc(N3CCNCC3)c(F)cc2c1=O` [ciprofloxacin], the “reduction of BA culture viability” value is reported as “fails to kill BA”.
